Assay: In vitro intestinal digestion of carrier oil in fasted media (pH 6.5): solubilisation of CBD
Format: in vitro ADME
Experimental: FIG. 1—Solubilisation of CBD during in vitro intestinal digestion of carrier oil (MCT, LCT/LCFA, or a mixture of MCT:LCT/LCFA) in fasted media (pH 6.5). Total lipid was 110 mg (100 mg carrier oil+10 mg CBD). Data are mean±SD, n=3. A. CBD concentration (mg) during digestion in MCT. B. CBD concentration (mg) during digestion in LCT/LCFA (Maisine CC). C. CBD concentration (mg) during digestion in a mixture of MCT:LCT/LCFA (Maisine CC)
FIG. 2—Solubilisation of CBD in the presence of TPM during in vitro gastro-intestinal digestion of carrier oil (MCT, LCT/LCFA, or a mixture of MCT:LCT/LCFA) in fasted media. Total lipid was 110 mg (80-90 mg carrier oil+10 mg CBD+10-20 mg TPM). Data are mean±SD, n=3. A. CBD concentration (mg) during digestion in MCT with TPM. B. CBD concentration (mg) during digestion in LCT/LCFA (Maisine CC) with TPM. C. CBD concentration (mg) during digestion in a mixture of MCT:LCT/LCFA (Maisine CC) with TPM.
FIG. 3—Solubilisation of CBD in the presence of TPM during in vitro digestion of carrier oil (MCT, LCT/LCFA, or a mixture of MCT:LCT/LCFA) in fasted media (pH 6.5). Total lipid was 110 mg (80-90 mg carrier oil+10 mg CBD+10-20 mg TPM). Data are mean±SD, n=3. A. CBD concentration (mg) during digestion in 3:1 MCT:LCT/LCFA, with TPM. B. CBD concentration (mg) during digestion in 1:1 MCT:LCT/LCFA, with TPM. C. CBD concentration (mg) during digestion in 1:3 MCT:LCT/LCFA, with TPM. […]

C=C(C)[C@@H]1CCC(C)=C[C@H]1c1c(O)cc(CCCCC)cc1O [CBD, cannabidiol]
effect of TPM addition on in-vitro solubility of CBD during digestion (TPM added to MCT carrier oil or to LCT/LCFA carrier oil): did not increase | effect of TPM addition on aqueous solubility of CBD during digestion (TPM added to mixture of MCT and LCT/LCFA): increased

Reference: patent US12539307B2, “Oral cannabinoid formulation comprising tocopheryl phosphates and long chain triglycerides or long chain fatty acids” (AVECHO BIOTECHNOLOGY LIMITED, priority 2020, dated 2026)
